Measured values reported in article doi:10.1101/2021.03.11.435010.
These are yes or no findings as the source states them, for the method shown.

Sequences of proteins named here, by UniProt entry; tags and fusion partners are left off. A change or cut given only in a name is not applied to a line headed by its entry.
UniProt P51948: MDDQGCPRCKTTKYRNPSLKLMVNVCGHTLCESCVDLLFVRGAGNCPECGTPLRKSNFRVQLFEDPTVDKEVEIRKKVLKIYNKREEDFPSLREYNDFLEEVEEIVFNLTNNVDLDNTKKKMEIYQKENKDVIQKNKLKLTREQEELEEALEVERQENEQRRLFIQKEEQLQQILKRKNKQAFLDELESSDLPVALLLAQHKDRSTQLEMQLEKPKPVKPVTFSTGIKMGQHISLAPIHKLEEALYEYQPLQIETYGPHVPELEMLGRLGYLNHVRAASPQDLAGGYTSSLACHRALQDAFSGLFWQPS
UniProt P51946: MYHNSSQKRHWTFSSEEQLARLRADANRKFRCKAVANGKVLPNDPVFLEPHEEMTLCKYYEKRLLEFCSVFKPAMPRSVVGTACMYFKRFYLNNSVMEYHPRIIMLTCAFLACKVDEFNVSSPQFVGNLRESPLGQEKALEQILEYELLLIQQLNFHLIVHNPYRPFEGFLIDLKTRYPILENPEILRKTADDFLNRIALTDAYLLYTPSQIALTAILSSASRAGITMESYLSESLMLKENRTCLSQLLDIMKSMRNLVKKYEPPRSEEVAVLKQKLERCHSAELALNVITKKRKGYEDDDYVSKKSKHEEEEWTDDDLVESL
UniProt O75586: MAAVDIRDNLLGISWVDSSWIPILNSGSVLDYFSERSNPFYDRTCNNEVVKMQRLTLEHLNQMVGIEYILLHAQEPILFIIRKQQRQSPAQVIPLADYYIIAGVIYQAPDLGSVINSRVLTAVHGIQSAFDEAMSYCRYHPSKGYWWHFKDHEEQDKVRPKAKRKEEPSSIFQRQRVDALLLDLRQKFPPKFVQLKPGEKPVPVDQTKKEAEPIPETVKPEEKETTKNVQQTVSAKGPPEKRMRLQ
UniProt Q96G25: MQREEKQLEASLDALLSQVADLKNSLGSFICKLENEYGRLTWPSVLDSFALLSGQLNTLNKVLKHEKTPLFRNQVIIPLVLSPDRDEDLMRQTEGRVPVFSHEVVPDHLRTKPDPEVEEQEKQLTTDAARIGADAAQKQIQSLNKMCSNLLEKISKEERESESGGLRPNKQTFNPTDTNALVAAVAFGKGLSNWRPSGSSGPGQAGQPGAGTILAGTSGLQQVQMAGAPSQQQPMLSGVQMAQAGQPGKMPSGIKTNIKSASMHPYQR
UniProt Q9P086: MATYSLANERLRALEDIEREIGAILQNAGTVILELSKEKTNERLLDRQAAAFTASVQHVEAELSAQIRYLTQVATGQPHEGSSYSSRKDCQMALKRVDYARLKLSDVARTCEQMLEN
UniProt Q9NVC6: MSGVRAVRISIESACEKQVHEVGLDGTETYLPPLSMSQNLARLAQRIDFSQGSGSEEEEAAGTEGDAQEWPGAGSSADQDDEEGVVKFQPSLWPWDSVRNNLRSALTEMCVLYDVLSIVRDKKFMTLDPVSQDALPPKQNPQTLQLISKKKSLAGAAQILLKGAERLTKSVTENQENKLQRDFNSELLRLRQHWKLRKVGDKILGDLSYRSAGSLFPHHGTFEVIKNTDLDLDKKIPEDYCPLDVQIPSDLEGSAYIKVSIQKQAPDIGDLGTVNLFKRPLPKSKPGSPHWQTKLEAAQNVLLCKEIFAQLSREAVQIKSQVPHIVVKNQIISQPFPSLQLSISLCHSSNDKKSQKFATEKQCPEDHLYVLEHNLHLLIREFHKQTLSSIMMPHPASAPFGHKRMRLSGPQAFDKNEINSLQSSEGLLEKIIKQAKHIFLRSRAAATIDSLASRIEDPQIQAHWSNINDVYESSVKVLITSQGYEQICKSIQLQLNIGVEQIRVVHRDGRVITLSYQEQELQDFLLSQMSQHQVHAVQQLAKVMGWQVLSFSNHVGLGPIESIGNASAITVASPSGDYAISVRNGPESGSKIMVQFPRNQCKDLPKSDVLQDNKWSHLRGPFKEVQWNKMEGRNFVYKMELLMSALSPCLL
UniProt Q9BUE0: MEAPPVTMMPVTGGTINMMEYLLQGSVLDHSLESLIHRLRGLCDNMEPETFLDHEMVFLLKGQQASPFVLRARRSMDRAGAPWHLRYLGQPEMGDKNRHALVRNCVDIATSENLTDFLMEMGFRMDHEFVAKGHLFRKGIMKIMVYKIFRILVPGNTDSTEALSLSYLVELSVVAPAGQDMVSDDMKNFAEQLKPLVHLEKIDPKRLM
UniProt Q9H944: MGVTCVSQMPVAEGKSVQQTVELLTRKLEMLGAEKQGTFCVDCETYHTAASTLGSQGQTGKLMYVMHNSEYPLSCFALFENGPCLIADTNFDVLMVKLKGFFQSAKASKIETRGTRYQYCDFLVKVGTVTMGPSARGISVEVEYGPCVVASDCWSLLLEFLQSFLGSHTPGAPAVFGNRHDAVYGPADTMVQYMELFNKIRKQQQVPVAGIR
UniProt Q15528: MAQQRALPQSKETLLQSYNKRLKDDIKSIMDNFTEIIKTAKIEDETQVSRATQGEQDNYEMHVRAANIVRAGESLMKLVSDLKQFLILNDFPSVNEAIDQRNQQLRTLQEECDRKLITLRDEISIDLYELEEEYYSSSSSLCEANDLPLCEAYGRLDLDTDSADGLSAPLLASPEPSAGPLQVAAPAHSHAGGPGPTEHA
UniProt O95402: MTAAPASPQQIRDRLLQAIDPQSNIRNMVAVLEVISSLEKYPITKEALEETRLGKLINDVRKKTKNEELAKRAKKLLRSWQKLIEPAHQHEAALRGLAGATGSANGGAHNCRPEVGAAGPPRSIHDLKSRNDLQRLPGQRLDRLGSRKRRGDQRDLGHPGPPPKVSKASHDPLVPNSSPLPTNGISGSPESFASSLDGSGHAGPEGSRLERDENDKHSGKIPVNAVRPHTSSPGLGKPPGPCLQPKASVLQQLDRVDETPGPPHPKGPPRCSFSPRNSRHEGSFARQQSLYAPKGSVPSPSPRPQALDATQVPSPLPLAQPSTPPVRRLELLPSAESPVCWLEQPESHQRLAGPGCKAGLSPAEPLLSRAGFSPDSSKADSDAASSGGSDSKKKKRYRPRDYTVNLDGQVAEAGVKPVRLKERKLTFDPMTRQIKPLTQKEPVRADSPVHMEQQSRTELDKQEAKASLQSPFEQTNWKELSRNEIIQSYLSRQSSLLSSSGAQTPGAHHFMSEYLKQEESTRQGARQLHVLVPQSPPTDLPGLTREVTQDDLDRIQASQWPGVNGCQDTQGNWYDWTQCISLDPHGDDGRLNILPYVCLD
UniProt Q6P2C8: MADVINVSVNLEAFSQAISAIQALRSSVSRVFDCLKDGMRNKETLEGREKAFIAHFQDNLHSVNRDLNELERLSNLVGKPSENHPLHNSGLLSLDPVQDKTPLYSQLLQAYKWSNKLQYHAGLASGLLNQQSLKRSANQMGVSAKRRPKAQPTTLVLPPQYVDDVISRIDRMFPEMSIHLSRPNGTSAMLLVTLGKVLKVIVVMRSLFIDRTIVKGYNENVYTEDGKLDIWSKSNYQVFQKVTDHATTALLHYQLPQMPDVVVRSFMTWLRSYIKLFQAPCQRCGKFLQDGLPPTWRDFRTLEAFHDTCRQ
UniProt Q9H204: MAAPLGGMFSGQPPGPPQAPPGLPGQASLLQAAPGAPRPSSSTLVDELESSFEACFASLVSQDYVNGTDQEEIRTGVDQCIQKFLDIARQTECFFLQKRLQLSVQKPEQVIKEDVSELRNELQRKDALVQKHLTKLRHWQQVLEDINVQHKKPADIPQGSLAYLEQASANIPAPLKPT
UniProt Q9NX70: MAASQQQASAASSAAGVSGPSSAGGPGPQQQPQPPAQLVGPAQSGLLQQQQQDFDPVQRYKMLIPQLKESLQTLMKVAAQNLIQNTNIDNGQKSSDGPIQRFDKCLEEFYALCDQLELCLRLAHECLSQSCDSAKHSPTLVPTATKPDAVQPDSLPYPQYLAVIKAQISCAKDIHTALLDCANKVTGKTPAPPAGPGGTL
UniProt Q96HR3: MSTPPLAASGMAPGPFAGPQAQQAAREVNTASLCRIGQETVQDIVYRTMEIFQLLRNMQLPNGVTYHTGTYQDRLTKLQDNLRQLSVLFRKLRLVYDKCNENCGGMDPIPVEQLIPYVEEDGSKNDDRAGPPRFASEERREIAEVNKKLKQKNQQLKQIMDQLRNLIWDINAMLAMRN
UniProt Q9NPJ6: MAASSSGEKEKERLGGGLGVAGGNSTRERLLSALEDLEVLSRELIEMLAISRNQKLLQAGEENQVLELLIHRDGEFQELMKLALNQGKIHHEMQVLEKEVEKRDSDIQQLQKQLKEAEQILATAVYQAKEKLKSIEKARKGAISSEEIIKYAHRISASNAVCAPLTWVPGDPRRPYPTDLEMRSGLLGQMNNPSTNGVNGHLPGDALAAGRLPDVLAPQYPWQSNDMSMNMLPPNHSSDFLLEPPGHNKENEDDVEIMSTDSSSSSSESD
UniProt O43513: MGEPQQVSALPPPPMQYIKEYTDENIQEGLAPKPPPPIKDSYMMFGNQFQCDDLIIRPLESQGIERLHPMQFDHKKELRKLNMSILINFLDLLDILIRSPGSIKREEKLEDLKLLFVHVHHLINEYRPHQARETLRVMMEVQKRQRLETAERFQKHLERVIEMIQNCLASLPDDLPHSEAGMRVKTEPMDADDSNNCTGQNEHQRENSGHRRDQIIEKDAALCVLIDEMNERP
UniProt Q9NWA0: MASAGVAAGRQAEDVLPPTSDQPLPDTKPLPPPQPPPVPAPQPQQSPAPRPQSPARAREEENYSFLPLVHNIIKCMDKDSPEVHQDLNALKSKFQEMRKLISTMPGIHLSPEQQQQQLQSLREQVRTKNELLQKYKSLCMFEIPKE
UniProt Q9BTT4: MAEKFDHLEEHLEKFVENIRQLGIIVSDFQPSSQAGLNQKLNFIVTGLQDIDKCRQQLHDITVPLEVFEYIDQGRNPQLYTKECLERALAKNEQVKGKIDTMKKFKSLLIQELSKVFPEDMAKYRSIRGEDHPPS
UniProt O60244: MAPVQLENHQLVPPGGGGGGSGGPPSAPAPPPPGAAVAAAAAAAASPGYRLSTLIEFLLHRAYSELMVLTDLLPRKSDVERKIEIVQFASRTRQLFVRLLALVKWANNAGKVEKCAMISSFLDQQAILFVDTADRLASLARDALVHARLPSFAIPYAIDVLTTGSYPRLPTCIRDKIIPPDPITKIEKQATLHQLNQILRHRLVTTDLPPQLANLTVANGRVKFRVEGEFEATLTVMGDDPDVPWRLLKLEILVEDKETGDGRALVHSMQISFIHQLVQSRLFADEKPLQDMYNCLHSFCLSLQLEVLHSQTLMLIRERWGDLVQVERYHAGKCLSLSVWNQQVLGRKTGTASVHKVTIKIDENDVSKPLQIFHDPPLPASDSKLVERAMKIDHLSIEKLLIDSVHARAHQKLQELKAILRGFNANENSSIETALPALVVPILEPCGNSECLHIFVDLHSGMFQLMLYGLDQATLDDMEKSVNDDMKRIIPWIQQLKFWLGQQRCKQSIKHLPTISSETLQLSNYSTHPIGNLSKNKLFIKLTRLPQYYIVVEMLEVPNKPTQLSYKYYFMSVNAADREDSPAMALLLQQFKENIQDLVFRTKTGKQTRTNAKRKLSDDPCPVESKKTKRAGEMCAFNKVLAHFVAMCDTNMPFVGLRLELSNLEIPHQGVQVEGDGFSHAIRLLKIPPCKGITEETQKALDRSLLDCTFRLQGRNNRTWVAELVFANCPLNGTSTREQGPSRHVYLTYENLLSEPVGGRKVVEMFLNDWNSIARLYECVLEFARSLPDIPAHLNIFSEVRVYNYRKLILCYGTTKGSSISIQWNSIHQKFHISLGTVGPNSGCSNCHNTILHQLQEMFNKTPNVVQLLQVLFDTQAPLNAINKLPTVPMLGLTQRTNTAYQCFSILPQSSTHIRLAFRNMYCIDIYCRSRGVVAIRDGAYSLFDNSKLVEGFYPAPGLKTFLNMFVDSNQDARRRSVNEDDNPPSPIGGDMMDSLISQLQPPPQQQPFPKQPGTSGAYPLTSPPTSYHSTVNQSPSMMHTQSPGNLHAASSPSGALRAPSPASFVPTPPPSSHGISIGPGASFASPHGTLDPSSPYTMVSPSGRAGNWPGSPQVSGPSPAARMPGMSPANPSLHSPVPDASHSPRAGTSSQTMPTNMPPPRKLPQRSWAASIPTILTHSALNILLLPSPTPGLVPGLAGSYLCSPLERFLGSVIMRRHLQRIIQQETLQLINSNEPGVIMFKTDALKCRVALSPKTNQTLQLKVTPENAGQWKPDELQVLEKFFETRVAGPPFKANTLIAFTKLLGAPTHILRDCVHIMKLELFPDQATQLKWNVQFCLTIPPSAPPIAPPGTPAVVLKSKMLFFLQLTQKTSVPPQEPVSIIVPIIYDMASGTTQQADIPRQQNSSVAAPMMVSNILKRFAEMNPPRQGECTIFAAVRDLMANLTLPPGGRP
UniProt Q13503: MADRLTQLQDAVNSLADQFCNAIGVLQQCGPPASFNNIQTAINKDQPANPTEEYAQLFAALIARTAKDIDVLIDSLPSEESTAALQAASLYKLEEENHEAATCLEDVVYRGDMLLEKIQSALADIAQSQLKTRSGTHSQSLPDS
UniProt Q9Y3C7: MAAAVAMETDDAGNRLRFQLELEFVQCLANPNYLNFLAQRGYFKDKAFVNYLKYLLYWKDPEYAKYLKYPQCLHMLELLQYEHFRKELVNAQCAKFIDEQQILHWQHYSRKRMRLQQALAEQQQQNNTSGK

Legend:
MAT1 (human) = MAT1 (human) (UniProt P51948); assay: cryo-EM structure
cyclin H (human) = cyclin H (human) (UniProt P51946); assay: cryo-EM structure

In the case of “20-subunit recombinant human Mediator (from UniProt O75586;Q96G25;Q9P086;Q9NVC6;Q9BUE0;Q9H944;Q15528;O95402;Q6P2C8;Q9H204;Q9NX70;Q96HR3;Q9NPJ6;O43513;Q9NWA0;Q9BTT4;O60244;A0JLT2;Q13503;Q9Y3C7) (complex)”, the binding (MAT1 (human)) is reported as “no binding” and the binding (cyclin H (human)) is reported as “no binding”.
